The data set in a line: Bioorthogonal click reaction in vitro followed by LC-MS. As to conditions: 1:1 ratio in DMSO.

A value given as a limit tells only on which side of the number the result lay.

As for `C=CC(=O)Nc1ccccc1Nc1nc(Nc2ccnc(C#CCCNC(=O)OC3CC/C=C/CCC3)c2)ncc1Cl` (centres unmarked) [Probe 1, (4E)-Cyclooct-4-en-1-yl N-(4-{4-[(5-chloro-4-{[2-(prop-2-enamido)phenyl]amino}pyrimidin-2-yl)amino]pyridin-2-yl}but-3-yn-1-yl) carbamate], the “Time to complete bioorthogonal reaction with Tz-thalidomide” value is at most 15 min.

In the case of `Cc1sc2c(c1C)C(c1ccc(Cl)cc1)=N[C@@H](CC(=O)NCCCNC(=O)OC1CC/C=C/CCC1)c1nnc(C)n1-2` (stereo partly drawn) [JQ1-TCO, (4E)-Cyclooct-4-en-1-yl N-(3-{2-[(9S)-7-(4-chlorophenyl)-4,5,13-trimethyl-3-thia-1,8,11,12-tetraazatricyclo[8.3.0.0^2,6]trideca-2(6),4,7,10,12-pentaen-9-yl]acetamido}propyl)carbamate], the “Time to complete bioorthogonal reaction with Tz-thalidomide” value is reported as at most 15 min.
